Literature values in patent publication US20230321105A1, “CELL SIGNAL DETECTION AND MODULATION IN DISEASE” (Washington University, priority 2022, published 2023).
For at least one compound, name, drawing or mass did not settle the structure.

Tested on: HPV-positive cervical cancer cells
Conditions: in-vitro; cited from earlier work

## N#CC[C@H](C1CCCC1)n1cc(-c2ncnc3[nH]ccc23)cn1 [Ruxolitinib]
  Cisplatin-induced cell death: facilitating Cisplatin-induced cell death
